PubChem BioAssay AID1259425 – University of Nebraska Medical Center, 2018
The deposit covers about 14,000 reagents; shown is a random part of them. Not all columns of the deposit are shown. The record does not give: the time to read-out.

Assay: 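Find knockdowns that reproduce the gene expression pattern seen when KSR1 is lost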 (primary screen)
Cell system: HCT116 human colon cancer cells
Knock-down reagent: siRNA pool against human genes, 50 nM siRNA
Detection: 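After 50 nM siRNA pool, branched-DNA assay measures six marker transcripts per well, minus blank, normalised to the geometric mean of two housekeeping transcripts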
Scale: BNIP3L mRNA: higher = more BNIP3L transcript after knockdown

NUDCD3 [SID363999422] → BNIP3L mRNA, set 1: 0.226
SIX4 [SID364000301] → BNIP3L mRNA, set 1: 0.0784
CHN1 [SID363993037] → BNIP3L mRNA, set 1: 0.0581
CCHCR1 [SID364001359] → BNIP3L mRNA, set 1: 0.133
NACA4P [SID364003751] → BNIP3L mRNA, set 1: 0.126
EPRS1 [SID363995428] → BNIP3L mRNA, set 1: 0.176
PRRT1 [SID364003394] → BNIP3L mRNA, set 1: 0.114
STRADA [SID364004769] → BNIP3L mRNA, set 1: 0.0615
MAP2K2 [SID364003398] → BNIP3L mRNA, set 1: 0.0611
S1PR2 [SID363995229] → BNIP3L mRNA, set 1: 0.12
ZNF408 [SID364003019] → BNIP3L mRNA, set 1: 0.113
KIF5A [SID363995924] → BNIP3L mRNA, set 1: 0.0525
NXN [SID364002449] → BNIP3L mRNA, set 1: 0.0716
TLX2 [SID363992791] → BNIP3L mRNA, set 1: 0.0455
TIPE2 [SID364002881] → BNIP3L mRNA, set 1: 0.193
PARP2 [SID363996386] → BNIP3L mRNA, set 1: 0.0978
GPNMB [SID363993682] → BNIP3L mRNA, set 1: 0.104
ING4 [SID363999920] → BNIP3L mRNA, set 1: 0.106
MMP9 [SID363995933] → BNIP3L mRNA, set 1: 0.072
PCDHGC4 [SID364001255] → BNIP3L mRNA, set 1: 0.0839
BCL9 [SID363995315] → BNIP3L mRNA, set 1: 0.133
TFR2 [SID363994356] → BNIP3L mRNA, set 1: 0.126
EPHA8 [SID364001724] → BNIP3L mRNA, set 1: 0.119
NUF2 [SID364003610] → BNIP3L mRNA, set 1: 0.155
CNTLN [SID364000485] → BNIP3L mRNA, set 1: 0.0695
ARG2 [SID363992463] → BNIP3L mRNA, set 1: 0.0911
RAB11B [SID363995218] → BNIP3L mRNA, set 1: 0.149
ZKSCAN7 [SID364001150] → BNIP3L mRNA, set 1: 0.159

Part of the list above, reformatted:
| gene | PubChem SID | BNIP3L mRNA, set 1 |
| --- | --- | --- |
| SIX4 | SID364000301 | 0.0784 |
| CHN1 | SID363993037 | 0.0581 |
